Measurements as given in patent publication US10919910B2, “Seco macrolide compounds” (FIDELTA D.O.O., priority 2016, dated 2021).
Some of these results come from one statement about several compounds together.

Tested on: TNF-alpha overproduction induced by bacterial lipopolysaccharide (LPS)
Assay: TNF-alpha overproduction induced by bacterial lipopolysaccharide (LPS) in male BALB/cJ mice
Format: in vivo
Conditions: 25 mg/kg i.p. single dose, intranasal LPS 2 h later, blood 0.5 h after LPS; decrease vs LPS-challenged untreated animals

Row | Compound | inhibition of TNF-alpha overproduction
1 | CO[C@]1(C)C[C@H](O[C@H]2[C@H](C)[C@@H](O[C@@H]3O[C@H](C)C[C@H](N(C)C)[C@H]3O)[C@](C)(O)C[C@@H](C)CN(C)C(=O)CC(Cc3ccccc3)NC(=O)[C@@H]2C)O[C@@H](C)[C@@H]1OC(C)=O (stereo partly drawn) [Compound 59] | more than 40%
2 | CO[C@]1(C)C[C@H](O[C@H]2[C@H](C)[C@@H](O[C@@H]3O[C@H](C)C[C@H]4[C@H]3O/C(=N/C(C)C)N4C)[C@](C)(O)C[C@@H](C)CN(C)C(=O)[C@H](Cc3c[nH]c4ccccc34)NC(=O)[C@@H]2C)O[C@@H](C)[C@@H]1O [Compound 241] | more than 40%
3 | CO[C@]1(C)C[C@H](O[C@H]2[C@H](C)[C@@H](O[C@@H]3O[C@H](C)C[C@H](N(C)C)[C@H]3OCCCNC(=O)CN(C)C)[C@](C)(O)C[C@@H](C)CN(C)C(=O)C[C@H](Cc3ccccc3)NC(=O)[C@@H]2C)O[C@@H](C)[C@@H]1O [Compound 232] | more than 70%
4 | CO[C@]1(C)C[C@H](O[C@H]2[C@H](C)[C@@H](O[C@@H]3O[C@H](C)C[C@H](N(C)C)[C@H]3O)[C@](C)(O)C[C@@H](C)CN(C)C(=O)[C@@H](Cc3ccccc3)N(C)C(=O)[C@@H]2C)O[C@@H](C)[C@@H]1O [Compound 233] | more than 70%
5 | C[C@H]1CN(C)C(=O)CCCNC(=O)[C@H](C)[C@@H](OC(=O)C2CCC(F)(F)CC2)[C@H](C)[C@@H](O[C@@H]2O[C@H](C)C[C@H](N(C)C)[C@H]2O)[C@](C)(O)C1 [Compound 65] | more than 70%
6 | CO[C@]1(C)C[C@H](O[C@H]2[C@H](C)[C@@H](O[C@@H]3O[C@H](C)C[C@H]4[C@H]3O/C(=N/C(C)C)N4C)[C@](C)(O)C[C@@H](C)CN(C)C(=O)CC(Cc3ccccc3)NC(=O)[C@@H]2C)O[C@@H](C)[C@@H]1O (stereo partly drawn) [Compound 235] | more than 40%
